In all, about 580,000 compounds went through this assay and about 6,100 (1.1%) were called active. Not shown: some 15% with an inconclusive outcome. Calls follow the shape of the dose curve; as a rule, active = well fitted inhibition curve with a large enough effect; inconclusive = small, poorly fitted or top-dose-only effect, or another doubt; inactive = no such curve, though single readings can be large or run the other way. This is a selection; strong and weak results do not stand in their true shares. Where no call is shown, the source filed none. Some compounds were tested as several samples or in several runs, with calls that do not always agree.
% is scaled to controls: 0 for no effect and ±100 for the full control effect; potency is read from the fitted curve at half-maximal effect.

Amino acid sequences for entries named in this document (tags omitted). A change or cut given only in a name is not applied to a line headed by its entry.
UniProt P18054: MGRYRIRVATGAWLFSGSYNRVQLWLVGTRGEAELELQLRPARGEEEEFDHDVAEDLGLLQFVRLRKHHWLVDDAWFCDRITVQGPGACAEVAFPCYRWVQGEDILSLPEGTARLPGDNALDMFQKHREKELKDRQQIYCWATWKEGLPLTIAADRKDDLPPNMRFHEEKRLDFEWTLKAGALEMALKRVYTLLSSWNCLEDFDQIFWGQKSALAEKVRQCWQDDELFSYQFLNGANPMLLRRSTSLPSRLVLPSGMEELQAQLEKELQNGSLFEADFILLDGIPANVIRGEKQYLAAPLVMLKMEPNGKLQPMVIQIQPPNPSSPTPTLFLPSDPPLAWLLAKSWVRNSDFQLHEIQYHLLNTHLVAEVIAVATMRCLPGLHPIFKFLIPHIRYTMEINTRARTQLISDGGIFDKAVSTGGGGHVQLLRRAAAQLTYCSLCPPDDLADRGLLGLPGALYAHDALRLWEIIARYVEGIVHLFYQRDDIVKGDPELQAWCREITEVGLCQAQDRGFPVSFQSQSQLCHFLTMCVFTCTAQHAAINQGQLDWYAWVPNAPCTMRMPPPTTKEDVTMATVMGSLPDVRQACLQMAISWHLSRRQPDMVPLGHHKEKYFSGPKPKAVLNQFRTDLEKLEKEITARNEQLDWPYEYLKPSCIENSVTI

The experiment deals with Polyunsaturated fatty acid lipoxygenase ALOX12 (Homo sapiens) (UniProt P18054). The experiment can be described thus: Primary qHTS assay for inhibitors of human arachidonate 12S-lipoxygenase (ALOX12): Round 2. The following applies: purified 12hLO, xylenol orange hydroperoxide absorbance; activity change, negative = inhibition: at 0.00344 µM (top of the series) unless noted. From the text:
Assay Provider: Theodore R. Holman Ph.D. University of California, Santa Cruz, California Human lipoxygenase 12hLO is a member of the closely related lipoxygenase family of enzymes which catalyze the site-specific oxidation of arachidonic acid to various hormone precursor molecules and as such is a candidate for drug development in a variety of disease areas, such as cancer and inflammation. Inhibition of 12hLO activity was screened by utilizing arachidonic acid as a substrate. The extent of hydroperoxide product formation was measured by a secondary chromogenic reaction in which xylenol orange (XO, Sigma-Aldrich, cat. number 39,818-7) reacts with the ferric ions produced from the reaction between the hydroperoxide and ferrous ions. The Fe (III)-XO complex is characterized with red-shifted absorbance at 560 nm. A purified preparation of human 12hLO was supplied by Dr. Holman laboratory, University of California, Santa Cruz.
PROTOCOL TABLE SEQUENCE No. (e.g., 1, 2, 3, etc.); […] (e.g., Cells, Incubation, Reagent, etc.); VALUE; DESCRIPTION 1; Enzyme; 3 uL; 150 nM 12hLO enzyme solution dispensed in 1536-well Greiner black, clear bottom plates. 2; Compound; 23 nL; compounds and controls were added. 3; Incubate; 15 min; room temperature. 4; Substrate; 1 uL; 40 uM arachidonic acid (final concentration). 5; Incubate; 30 min; room temperature. 6; Reagent; 4 uL; Fe-XO solution was added to each well. 7; Incubation; 30 min; room temperature 8; Detector; absorbance; Read 1 at 405 nm absorbance using ViewLux (Perkin-Elmer) CCD imager. 9; Detector; absorbance; Read 2 at 573 nm absorbance using ViewLux (Perkin-Elmer) CCD imager. NOTES (numbers refer to sequence above) 1; 150 nM 12hLO (final concentration) in buffer solution (25 mM Hepes, 0.01% Triton X-100, pH 7.0) was dispensed in columns 1, 2, 5-48. Column 1 is neutral (100% activity). Buffer only was dispensed in columns 3 and 4 as no enzyme negative controls. The plates were covered with metal lids with gas-exchange holes. 2; Compounds were pin transferred via a Kalypsys Pin Tool (Wako USA) in column 5-48. Control compound was transferred in column 2, titration of nordihydroguaiaretic acid (NDGA, Sigma-Aldrich, N5023) with top concentration of 20 mM in DMSO then 1:3 dilution in duplicate. Dilution factor of 23 nL into 4 uL final assay volume. 3; Covered assay plates were incubated for 15 min at room temperature. 4; Substrate was added to start the reaction; 40 uM arachidonic acid (Sigma-Aldrich, St. Louis, MO) was dispensed throughout the plate. 6; Chromogenic detection reagent solution (divalent iron/xylenol orange, Fe-XO) was added to each well: 200 uM xylenol orange, 300 uM ferrous ammonium sulfate prepared freshly in 50 mM sulfuric acid. 8, 9; Two absorbance readouts were obtained at 405 nm and at 573 nm using a ViewLux high-throughput CCD plate imager (Perkin-Elmer). The 573 to 405 (Read 2 / Read 1) absorbance ratio was used to compute reaction progress.
A general note: Quantitative high-throughput screening tests each substance at several concentrations.
Turning to `COc1ccc(/C=C/C(=O)c2cc3c(cc2N)OCO3)cc1`, the Potency was active: 35.5 µM.

For the compound `Cc1cccn2c(=O)c(-c3nnn[nH]3)cnc12`, the activity change, negative = inhibition was -18% [at 0.00147 µM].

In the case of `O=C1N=c2ccc(Br)cc2=C1c1sc(=S)n(NS(=O)(=O)c2ccccc2)c1O`, the Potency is active: 35.5 µM.

Turning to `CC1(C)OC(=O)Nc2ccc(Br)cc21`, the activity change, negative = inhibition was -1.05%.

In the case of `CC(C)NS(=O)(=O)c1ccc(C(=O)NCc2ccc(-c3nc4ccccc4s3)o2)cc1`, the Potency is active: 25.1 µM.

Turning to `CC(=O)OC[C@H]1O[C@@H](OC(C)=O)[C@H](OC(C)=O)[C@@H]1OC(C)=O`, the activity change, negative = inhibition turned out to be 4.42%.

As for `O=C1C(O)=C(O)C(=O)C(O)=C1O`, the activity change, negative = inhibition came out at 20.3%.

As for `Cc1ccc(-c2csc(/C=C/c3cccc(O)c3)n2)cc1`, the Potency was active: 7.08 µM.

On to `COC(=O)CCCn1cc(CN2CC(N3CCN(Cc4cccc(C)c4)CC3)CS2(=O)=O)nn1` (stereo not drawn), for which the Potency is active: 7.08 µM.

As to `N#CC1(c2ccc(F)cc2)CCC(=O)CC1`, the activity change, negative = inhibition stood at 1.08%.

`CC[N+](CC)(CCNC(=O)C(=O)NCC[N+](CC)(CC)Cc1ccccc1Cl)Cc1ccccc1Cl`: the activity change, negative = inhibition was -17.5%.

Consider `CCN(CC)S(=O)(=O)c1cccc(-c2n[nH]c(=S)n2CC(C)C)c1`, for which the Potency is active: 31.6 µM.

For `CC1=CC(=O)c2ccccc2C1=O`, the activity change, negative = inhibition was -7.59%.

With `CCCCOC(=O)c1ccc(O)cc1`, the activity change, negative = inhibition is -0.81%.

As for `O=C1ON=C(c2cccc([N+](=O)[O-])c2)/C1=C/c1ccc(O)cc1`, the Potency is active: 7.94 µM.

With `CNCCCCOc1ccccc1Cc1ccccc1`, the activity change, negative = inhibition is 20.7%.

`CCN(CC)CCCN(c1ccccc1)C1Cc2ccccc2C1`: the activity change, negative = inhibition worked out at 29.8%.

Turning to `CC(=O)c1ccc(OCc2coc(-c3cccc(F)c3)n2)cc1`, the Potency was active: 44.7 µM.

With `O=C(CCCCC(=O)Nc1c(I)cc(I)c(C(=O)O)c1I)Nc1c(I)cc(I)c(C(=O)O)c1I`, the activity change, negative = inhibition was -3.82%.

Consider `COc1ccccc1N1CCN(CC(O)COc2cc(OC)c(OC)c(OC)c2)CC1` (stereo not drawn), for which the activity change, negative = inhibition is -17.7%.

As to `Cc1c(F)c(N2CCNC(C)C2)cc2c1c(=O)c(C(=O)O)cn2C1CC1` (stereo not drawn), the activity change, negative = inhibition is -11.8%.

In the case of `CCN1CCCC1=O`, the activity change, negative = inhibition is -15.3%.

Turning to `Cc1cc(OI)c(C(C)C)cc1-c1cc(C(C)C)c(OI)cc1C`, the activity change, negative = inhibition was -24.8%.

For the compound `C[C@@H]1O[C@@H](OC[C@H]2O[C@@H](Oc3c(-c4ccc(O)c(O)c4)oc4cc(O)cc(O)c4c3=O)[C@H](O)[C@@H](O)[C@@H]2O)[C@H](O)[C@H](O)[C@H]1O`, the activity change, negative = inhibition is -12.3%.

Regarding `Cc1c(/C=C(/C#N)c2ccccn2)cc(C#N)n1C`, the Potency is active: 35.5 µM.

Regarding `Cc1ccc(/C=N/n2c(-c3ccccc3)csc2=S)cc1`, the activity change, negative = inhibition is 34.1%.

On to `Cc1cc(C)c2oc(-c3ccc(C)c(NC(=O)/C=C/c4ccco4)c3)nc2c1`, for which the Potency is active: 50.1 µM.

As to `O=C(OCc1ccccc1)c1ccc(O)cc1`, the activity change, negative = inhibition is -17.6%.

For the compound `C/C=C(/C(=C/C)c1ccc(OC(C)=O)cc1)c1ccc(OC(C)=O)cc1`, the activity change, negative = inhibition is -22.5%.

As to `CCOC(=O)c1oc2ccccc2c1CN1CCN(C)CC1`, the Potency is active: 35.5 µM.

Take `CC(=O)CCC(=O)O`: the activity change, negative = inhibition is 13.1%.

Turning to `CC(Cc1ccccc1)(NC(=O)CN)c1ccccc1` (stereo not drawn), the activity change, negative = inhibition is -6.74%.

With `Cc1cc(N)c2cc(NC(=O)Nc3ccc4nc(C)cc(N)c4c3)ccc2n1`, the activity change, negative = inhibition was -5.34%.

`CN(C)/N=N/c1nc[nH]c1C(N)=O`: the activity change, negative = inhibition stood at 43%.

Consider `CCCCOC(=O)c1ccc(N)cc1`, for which the activity change, negative = inhibition was determined as 10%.

`O=c1[nH]c(=O)c2[nH]c(=S)[nH]c2[nH]1`: the Potency is active: 0.708 µM.

`NC(=O)Cc1cccc(C(=O)c2ccccc2)c1N`: the activity change, negative = inhibition is -12.5%.

Regarding `O=C(CCCl)NCc1ccccc1`, the activity change, negative = inhibition is -0.938%.

Turning to `COc1ccc([C@@H]2Sc3ccccc3NC(=O)[C@@H]2O)cc1`, the activity change, negative = inhibition was -35%.

Consider `COC(=O)[C@H]1[C@H]2C[C@@H]3c4[nH]c5cc(OC)ccc5c4CCN3C[C@H]2C[C@@H](OC(=O)COc2ccc(OC)cc2)[C@@H]1OC`, for which the activity change, negative = inhibition is -32.2%.

For `CC(C)COCC(CN(Cc1ccccc1)c1ccccc1)N1CCCC1` (stereo not drawn), the activity change, negative = inhibition amounted to 22.7%.

`CCC(CC)(CC(=O)Nc1cccc(/C=C/c2nc(C3CCC3)cs2)c1)C(=O)O`: the activity change, negative = inhibition was -25.3%.

As to `CCOC(=O)[C@H](CCc1ccccc1)N[C@@H](C)C(=O)N1[C@H](C(=O)O)C[C@@H]2CCC[C@@H]21`, the activity change, negative = inhibition amounted to 17.4%.

As to `NS(=O)(=O)c1cc(C(=O)O)c(NCc2ccco2)cc1Cl`, the activity change, negative = inhibition is -28.2%.

For the compound `Oc1ccc(Cl)cc1Cc1cc(Cl)ccc1O`, the activity change, negative = inhibition was 10%.

`Cc1ccc(N2N=C(c3ccc(F)cc3)CC2c2ccco2)cc1` (stereo not drawn): the Potency is active: 25.1 µM.

In the case of `Cc1cc(C2CCCCC2)n(O)c(=O)c1`, the activity change, negative = inhibition amounted to 54.7%.

Regarding `CC1=C(C(=O)OC(C)C)C(c2cccc([N+](=O)[O-])c2)C(C(=O)OC2CN(C(c3ccccc3)c3ccccc3)C2)=C(N)N1` (stereo not drawn), the activity change, negative = inhibition was found to be 0.098%.

For `COc1ccc2[nH]cc(CCNc3ccnc(-c4cccc(NS(C)(=O)=O)c4)n3)c2c1`, the Potency is active: 39.8 µM.

For `COc1ccc2cc(C=O)ccc2c1`, the activity change, negative = inhibition is -18.2%.

Turning to `C/C=C/C(=O)N(CC)c1ccccc1C`, the activity change, negative = inhibition turned out to be 24.4%.

Consider `COc1cccc(F)c1-c1ccc(COc2ccc3c(cnn3CCC(=O)O)c2)cc1`, for which the Potency was active: 22.4 µM.

Turning to `Cc1ccc(SCCNC(=S)Nc2ccc(F)cc2)cc1`, the Potency was active: 50.1 µM.
